{
  "source": "patent US20250009796A1",
  "binders": {"B1": {"name": "synthetic NOXA (having same sequence as wildtype NOXA) (peptide)", "chain": "MPGKKARKNAQPSPARAPAELEVECATQLRRFGDKLNFRQKLLNLISKLFCSGT"}},
  "key": {"[1]": {"biological_target": "myeloid cell leukemia 1 (MCL-1), Q07820", "experiment": "co-immunoprecipitation of MCL-1 (or isotype control IgG) from L363 cells treated with 15 ng/ml SLO with or without synthetic NOXA, Western blot", "details": "remark: other sources report otherwise"}, "[2]": {"biological_target": "myeloid cell leukemia 1 (MCL-1), Q07820", "experiment": "co-immunoprecipitation of MCL-1 from lysate of L363 cells treated with SLO and synthetic NOXA, Western blot", "details": "remark: other sources report otherwise"}},
  "note": "Results are given in words; binding and its absence hold for the method and conditions named. Binding seen in cells or lysates may run through a third protein. Some entries that bind do so weakly or less than the wild type.",
  "data": [
    {"binder": "B1", "values": [
      {"measurement": "binding", "setting": "[1]", "value": "binds"},
      {"measurement": "binding", "setting": "[2]", "value": "binds"}
    ]}
  ]
}
